Measured values taken from article doi:10.1101/2024.08.29.610313.
No constants are given. Whether binding was seen depends on the method and setting. Binding seen in cells or lysates may run through a third protein. Here binding means that the protein was enriched with, or labelled near, the bait; the list need not be complete.

Protein sequences, listed by entry. Tags and fused reporters are not part of them.
UniProt Q12888: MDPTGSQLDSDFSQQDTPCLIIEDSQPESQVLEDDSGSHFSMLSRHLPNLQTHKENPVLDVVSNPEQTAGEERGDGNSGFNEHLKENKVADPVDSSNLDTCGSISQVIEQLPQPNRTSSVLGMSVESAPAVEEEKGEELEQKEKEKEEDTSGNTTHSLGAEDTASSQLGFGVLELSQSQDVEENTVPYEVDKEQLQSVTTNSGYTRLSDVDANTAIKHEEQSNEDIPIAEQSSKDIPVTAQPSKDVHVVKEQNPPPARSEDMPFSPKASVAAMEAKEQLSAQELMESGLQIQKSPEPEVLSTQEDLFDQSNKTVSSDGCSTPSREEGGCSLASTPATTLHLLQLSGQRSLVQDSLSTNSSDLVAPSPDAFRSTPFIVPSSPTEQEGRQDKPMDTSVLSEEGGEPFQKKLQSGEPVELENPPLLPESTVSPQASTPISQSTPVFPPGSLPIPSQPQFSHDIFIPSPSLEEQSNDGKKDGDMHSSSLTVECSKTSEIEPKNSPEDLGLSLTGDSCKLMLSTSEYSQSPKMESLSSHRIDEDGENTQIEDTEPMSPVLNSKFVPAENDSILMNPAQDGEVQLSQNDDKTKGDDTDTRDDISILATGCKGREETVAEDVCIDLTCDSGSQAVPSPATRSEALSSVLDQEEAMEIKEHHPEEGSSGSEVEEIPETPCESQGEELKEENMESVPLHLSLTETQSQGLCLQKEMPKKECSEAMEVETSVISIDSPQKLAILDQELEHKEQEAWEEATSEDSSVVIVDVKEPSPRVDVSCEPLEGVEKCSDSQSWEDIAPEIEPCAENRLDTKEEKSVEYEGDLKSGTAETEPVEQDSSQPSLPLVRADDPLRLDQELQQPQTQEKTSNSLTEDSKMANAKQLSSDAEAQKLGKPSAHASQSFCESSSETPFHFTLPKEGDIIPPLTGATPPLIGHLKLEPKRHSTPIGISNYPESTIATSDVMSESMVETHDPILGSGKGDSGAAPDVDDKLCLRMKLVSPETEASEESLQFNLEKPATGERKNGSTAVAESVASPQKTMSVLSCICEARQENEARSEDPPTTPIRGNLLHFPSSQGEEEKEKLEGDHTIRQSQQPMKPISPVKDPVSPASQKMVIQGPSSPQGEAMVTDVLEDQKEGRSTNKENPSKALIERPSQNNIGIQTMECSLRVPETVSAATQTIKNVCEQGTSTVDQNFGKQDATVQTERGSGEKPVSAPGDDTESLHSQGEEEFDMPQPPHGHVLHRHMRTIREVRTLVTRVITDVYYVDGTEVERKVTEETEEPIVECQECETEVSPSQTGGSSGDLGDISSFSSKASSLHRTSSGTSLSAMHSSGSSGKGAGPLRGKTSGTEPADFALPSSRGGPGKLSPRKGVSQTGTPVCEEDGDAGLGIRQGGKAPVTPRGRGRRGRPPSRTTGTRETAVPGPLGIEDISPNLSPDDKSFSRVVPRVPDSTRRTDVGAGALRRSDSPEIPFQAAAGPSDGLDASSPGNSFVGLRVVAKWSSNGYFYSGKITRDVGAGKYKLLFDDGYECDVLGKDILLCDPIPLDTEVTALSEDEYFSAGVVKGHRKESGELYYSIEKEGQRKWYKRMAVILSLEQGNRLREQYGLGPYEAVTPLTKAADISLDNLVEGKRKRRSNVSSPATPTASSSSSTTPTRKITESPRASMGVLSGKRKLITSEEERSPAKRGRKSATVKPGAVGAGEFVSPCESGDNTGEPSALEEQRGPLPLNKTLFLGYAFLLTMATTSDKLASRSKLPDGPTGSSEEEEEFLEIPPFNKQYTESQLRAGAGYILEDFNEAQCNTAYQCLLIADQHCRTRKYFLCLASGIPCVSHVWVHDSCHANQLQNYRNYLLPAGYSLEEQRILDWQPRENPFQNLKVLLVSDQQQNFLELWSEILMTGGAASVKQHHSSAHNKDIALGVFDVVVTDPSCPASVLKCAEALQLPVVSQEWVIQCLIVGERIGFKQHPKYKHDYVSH
UniProt P13861: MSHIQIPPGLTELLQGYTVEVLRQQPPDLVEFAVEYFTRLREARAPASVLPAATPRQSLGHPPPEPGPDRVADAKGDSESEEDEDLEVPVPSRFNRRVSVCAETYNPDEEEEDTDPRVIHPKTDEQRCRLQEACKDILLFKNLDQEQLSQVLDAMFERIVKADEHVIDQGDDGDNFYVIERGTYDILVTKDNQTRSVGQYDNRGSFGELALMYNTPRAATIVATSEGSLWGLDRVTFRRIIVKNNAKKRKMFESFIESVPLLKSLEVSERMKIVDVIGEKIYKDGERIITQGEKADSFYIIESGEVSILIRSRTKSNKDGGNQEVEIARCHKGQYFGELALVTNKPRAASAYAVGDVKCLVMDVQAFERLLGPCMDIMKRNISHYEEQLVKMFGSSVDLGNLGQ
UniProt P31323: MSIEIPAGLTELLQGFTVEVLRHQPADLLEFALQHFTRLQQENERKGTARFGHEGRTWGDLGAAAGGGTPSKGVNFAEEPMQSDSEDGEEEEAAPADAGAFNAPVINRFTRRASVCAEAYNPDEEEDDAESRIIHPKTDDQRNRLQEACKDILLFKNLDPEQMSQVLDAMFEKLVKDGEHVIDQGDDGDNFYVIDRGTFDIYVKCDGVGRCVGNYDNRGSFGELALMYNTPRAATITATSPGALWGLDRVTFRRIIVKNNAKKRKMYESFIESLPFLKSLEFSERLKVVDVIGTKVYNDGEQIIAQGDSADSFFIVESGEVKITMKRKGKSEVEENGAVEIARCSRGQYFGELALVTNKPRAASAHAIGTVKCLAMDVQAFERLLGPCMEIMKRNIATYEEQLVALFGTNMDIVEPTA

target: 53BP1 (human (endogenous in SV40-transformed fibroblasts)) (UniProt Q12888); assay: affinity purification with mass spectrometry

Row | binding | Substance
1 | binds | DNA-PKcs (from UniProt P78527 1-4128) (enzyme)
2 | binds | cAMP-dependent protein kinase regulatory type II-α subunit (from UniProt P13861 1-404)
3 | binds | cAMP-dependent protein kinase regulatory type II-β subunit (from UniProt P31323 1-418)
